Some of the results follow. Further columns of the screen follow, without active or inactive calls. The list favours compounds with an active or inconclusive main result. Potencies come from curve fits of mixed quality, noted in brackets.
Assay: qHTS Assay for Modulators of Lamin A Splicing
Conditions: HeLa LMNA splicing GFP/RFP minigene ratio, 48 h
Procedure, shortened: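 Read-out is the ratio of GFP to DsRed2 object intensity, acquired by 488 nm laser-scanning cytometry on HeLa lamin A-EGFP minigene reporter cells. Compound incubation 48 hrs at 37 °C in Opti-MEM with 2% FBS; DMSO 0.5% final.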

[1] = measured here: GFP splicing reporter channel
[2] = measured here: RFP viability control channel

Row | SMILES | AC50 [1] | AC50 [2]
1 | CC1=C(/C=C/C(C)=C/C=C/C(C)=C/C(=O)Nc2ccc(O)cc2)C(C)(C)CCC1 | 35.5 µM [falling, single point] | 12.6 µM [falling, partial curve, poor fit]
2 | O=C(NCCCN1CCOCC1)c1cc(-c2ccc(Br)cc2)on1 | 7.94 µM [rising, partial curve] | 7.08 µM [rising, full curve]
3 | N/C(=N\OC(=O)COc1ccc(Br)cc1)c1ccncc1 | 7.94 µM [rising, partial curve] | 
4 | C[C@H](NC(=O)Nc1ccccc1F)C(=O)O |  | 0.00501 µM [falling, full curve, poor fit]
5 | CS(=O)(=O)C1=NSC2=NC(=O)/C(=C\c3cccn3-c3ccccc3Cl)C(=N)N21 | 0.224 µM [rising, single point] | 
6 | COC(=O)c1ccc(OC)c(CSc2nnc(COc3ccc(Cl)cc3)o2)c1 | 14.1 µM [rising, single point] | 22.4 µM [rising, single point]
7 | Cc1occc1-c1nnc(SCC(=O)Nc2ccccc2)n1C(C)c1ccccc1 (stereo unspecified) | 31.6 µM [rising, single point] | 
8 | CCc1c(C)nc2ncnn2c1N1CCCC(C(=O)NCc2ccc3c(c2)OCO3)C1 (stereo unspecified) | 35.5 µM [rising, single point] | 35.5 µM [rising, partial curve, poor fit]
9 | Cc1ccc2nc(-c3ccc(SCC(=O)Nc4ccc5c(c4)OCCO5)nc3)[nH]c2c1 |  | 35.5 µM [rising, single point]
10 | CCOC(=O)Cn1c(S(=O)(=O)Cc2cccc(F)c2)nc(-c2ccccc2)c1-c1ccccc1 |  | 11.2 µM [rising, single point]
11 | CCNC(=S)NNC(=O)c1cc(-c2cccc(OC)c2)nc2ccccc12 | 7.08 µM [rising, partial curve] | 11.2 µM [rising, partial curve]
12 | COc1ccc(C(=O)N2CCN(c3ccc([N+](=O)[O-])c(NCCc4ccc(OC)c(OC)c4)c3)CC2)cc1 | 0.398 µM [rising, full curve, poor fit] | 0.501 µM [rising, full curve]
13 | Cc1ccc(NC(=O)c2cc(S(=O)(=O)N3CCCCCC3)ccc2F)cc1F | 39.8 µM [rising, partial curve, poor fit] | 10 µM [rising, partial curve]
14 | CCN1CCc2c(sc(-n3cccc3)c2C(C)NC(=O)Nc2cc(Cl)c(OC)cc2OC)C1 (stereo unspecified) | 35.5 µM [rising, single point] | 35.5 µM [rising, single point]
15 | CCCC(=O)Nc1ccc(Cl)c(NC(=O)c2ccc(Br)o2)c1 |  | 15.8 µM [rising, single point]
16 | C/C(N)=C(/C#N)C(=O)CSc1nnnn1-c1ccc(C)cc1C |  | 10 µM [rising, partial curve]
17 | Cn1cc(C(c2ccccn2)c2cn(C)c3ccccc23)c2ccccc21 |  | 35.5 µM [rising, single point]
18 | COc1cc(NC(=O)CC2NCCNC2=O)cc(OC)c1 (stereo unspecified) | 1.12 µM [falling, partial curve] | 1.78 µM [falling, partial curve]
19 | CCOC(=O)c1c(C)oc2ccc(OCC(N)=O)cc12 |  | 1.41 µM [rising, partial curve, poor fit]
20 | Cc1cccc(N2CCN(C(=O)c3cnc4c(C)cccn4c3=O)CC2C)c1 (stereo unspecified) | 0.00891 µM [falling, full curve, poor fit] | 
21 | CCOc1ccc(OCC)c(NC(=O)CN(C)S(=O)(=O)c2cccc3nsnc23)c1 | 17.8 µM [rising, partial curve] | 17.8 µM [rising, single point]
22 | Cn1c(C(=O)Nc2ccc3c(c2)OCO3)cc2sccc21 |  | 12.6 µM [rising, single point]
23 | CC(=O)CCc1oc2ccc([N+](=O)[O-])cc2c1-c1ccc(C)o1 | 4.47 µM [falling, full curve, poor fit] | 
24 | COc1ccc(/C=N/N=C2/NC(=O)C(CC(=O)NC(N)=O)S2)cc1 (stereo unspecified) | 0.0316 µM [falling, full curve, poor fit] | 0.0112 µM [falling, full curve, poor fit]
25 | CCCCOC(=O)CSC1=C(C#N)C(c2ccccc2OCC)C(C#N)C(=O)N1 (stereo unspecified) | 15.8 µM [falling, partial curve, poor fit] | 
26 | CCOC(=O)c1cccc(NC(=O)CCc2nc(-c3ccccc3F)no2)c1 |  | 35.5 µM [rising, single point]
27 | CCOc1ccccc1NS(=O)(=O)c1c(C)noc1C |  | 35.5 µM [rising, single point]
28 | NCCc1ccn[nH]1 | 0.00355 µM [rising, full curve, poor fit] | 1.12 µM [rising, partial curve, poor fit]
29 | COc1ccc(OC)c(NC(=O)c2cccnc2Sc2cc(C)ccc2C)c1 |  | 28.2 µM [rising, single point]

In the list so far, four contain a furan ring, fused or not.
Row | SMILES | AC50 [1] | AC50 [2]
7 | Cc1occc1-c1nnc(SCC(=O)Nc2ccccc2)n1C(C)c1ccccc1 (stereo unspecified) | 31.6 µM [rising, single point] | 
15 | CCCC(=O)Nc1ccc(Cl)c(NC(=O)c2ccc(Br)o2)c1 |  | 15.8 µM [rising, single point]
19 | CCOC(=O)c1c(C)oc2ccc(OCC(N)=O)cc12 |  | 1.41 µM [rising, partial curve, poor fit]
23 | CC(=O)CCc1oc2ccc([N+](=O)[O-])cc2c1-c1ccc(C)o1 | 4.47 µM [falling, full curve, poor fit] | 

From PubChem BioAssay AID1487 (National Center for Advancing Translational Sciences (NCATS), 2009)
